Measured values as given in the M2OR odorant receptor database.
The entries are a selection whose mix differs from that of the whole data set. The calls were merged from several studies; some rest on single wells. Some of the results follow.

Key:
Conditions in all cases: stereoisomer not certain
OR4S2 (Homo sapiens) = biological target: T1, OR4S2 (Homo sapiens) (UniProt Q8NH73)
T1 sequence (whole entry): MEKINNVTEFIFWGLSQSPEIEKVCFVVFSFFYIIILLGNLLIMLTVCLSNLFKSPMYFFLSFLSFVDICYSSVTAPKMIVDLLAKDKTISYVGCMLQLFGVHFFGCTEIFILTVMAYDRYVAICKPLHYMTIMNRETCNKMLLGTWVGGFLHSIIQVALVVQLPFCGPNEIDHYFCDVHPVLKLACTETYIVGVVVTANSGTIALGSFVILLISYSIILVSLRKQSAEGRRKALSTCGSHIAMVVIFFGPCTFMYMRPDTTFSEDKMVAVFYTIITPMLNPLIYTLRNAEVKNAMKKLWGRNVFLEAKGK
Summary of the method: (§1)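 Values were gathered from published papers (main text and supplementary material), with extra details requested from the original authors when needed, and checked for typos and inconsistencies. Each receptor–molecule pair is called responsive (active) if the original authors judged the measured signal statistically different from baseline, and non-responsive (inactive) otherwise. Assay methods varied by source, often transient mammalian cell-line luciferase assays. Recorded details include cell line, G-protein, co-transfected protein and tags.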

OR4X1 = tested on: T2, OR4X1
T2 sequence (whole entry): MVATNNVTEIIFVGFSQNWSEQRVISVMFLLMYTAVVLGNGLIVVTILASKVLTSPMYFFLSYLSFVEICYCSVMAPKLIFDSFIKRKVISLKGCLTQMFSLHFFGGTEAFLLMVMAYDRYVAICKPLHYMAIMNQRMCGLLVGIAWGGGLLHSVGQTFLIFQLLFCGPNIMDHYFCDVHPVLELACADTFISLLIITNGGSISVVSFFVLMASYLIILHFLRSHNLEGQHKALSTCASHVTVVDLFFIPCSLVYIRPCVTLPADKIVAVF
Summary of the method: as §1

OR4X2 (Homo sapiens) = biological target: T3, OR4X2 (Homo sapiens) (UniProt Q8NGF9)
T3 sequence (whole entry): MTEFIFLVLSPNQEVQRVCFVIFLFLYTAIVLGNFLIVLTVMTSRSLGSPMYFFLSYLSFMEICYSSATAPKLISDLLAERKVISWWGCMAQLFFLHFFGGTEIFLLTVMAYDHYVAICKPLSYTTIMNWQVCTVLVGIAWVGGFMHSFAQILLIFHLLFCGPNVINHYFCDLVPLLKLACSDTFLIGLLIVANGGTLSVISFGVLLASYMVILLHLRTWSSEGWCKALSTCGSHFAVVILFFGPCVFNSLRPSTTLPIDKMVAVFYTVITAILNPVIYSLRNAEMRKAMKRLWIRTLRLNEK
Summary of the method: as §1

OR51A2 (Homo sapiens) = biological target: T4, OR51A2 (Homo sapiens) (UniProt Q8NGJ7)
T4 sequence (whole entry): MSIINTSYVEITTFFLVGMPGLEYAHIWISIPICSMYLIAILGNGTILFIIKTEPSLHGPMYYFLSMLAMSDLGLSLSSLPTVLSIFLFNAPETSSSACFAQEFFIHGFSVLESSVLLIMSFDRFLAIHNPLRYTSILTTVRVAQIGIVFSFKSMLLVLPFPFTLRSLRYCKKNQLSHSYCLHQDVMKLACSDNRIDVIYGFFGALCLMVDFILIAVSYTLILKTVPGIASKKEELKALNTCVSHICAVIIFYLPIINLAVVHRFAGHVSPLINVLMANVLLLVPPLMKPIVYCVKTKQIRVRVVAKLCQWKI
Summary of the method: as §1

OR51B2 (Homo sapiens) = biological target: T5, OR51B2 (Homo sapiens) (UniProt Q9Y5P1)
T5 sequence (whole entry): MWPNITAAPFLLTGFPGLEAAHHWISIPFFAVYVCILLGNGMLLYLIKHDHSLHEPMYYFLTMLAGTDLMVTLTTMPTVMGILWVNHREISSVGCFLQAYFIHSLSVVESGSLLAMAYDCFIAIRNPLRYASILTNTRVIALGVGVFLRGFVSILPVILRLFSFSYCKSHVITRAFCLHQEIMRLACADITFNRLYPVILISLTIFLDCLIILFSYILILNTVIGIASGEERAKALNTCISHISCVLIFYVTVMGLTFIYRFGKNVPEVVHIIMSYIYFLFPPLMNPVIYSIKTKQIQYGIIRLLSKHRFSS
Summary of the method: as §1

OR51D1 (Homo sapiens) = biological target: T6, OR51D1 (Homo sapiens) (UniProt Q8NGF3)
T6 sequence (whole entry): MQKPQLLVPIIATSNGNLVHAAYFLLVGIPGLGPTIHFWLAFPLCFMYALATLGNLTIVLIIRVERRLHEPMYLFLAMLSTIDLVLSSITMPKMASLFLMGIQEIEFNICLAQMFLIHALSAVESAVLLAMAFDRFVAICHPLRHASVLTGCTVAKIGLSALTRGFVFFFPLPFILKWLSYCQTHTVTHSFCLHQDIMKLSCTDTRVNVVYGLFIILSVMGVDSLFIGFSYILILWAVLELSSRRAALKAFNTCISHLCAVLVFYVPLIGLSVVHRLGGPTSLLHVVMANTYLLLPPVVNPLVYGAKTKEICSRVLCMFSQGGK
Summary of the method: as §1

OR51E1 (Homo sapiens) = biological target: T7, OR51E1 (Homo sapiens) (UniProt Q8TCB6)
T7 sequence (whole entry): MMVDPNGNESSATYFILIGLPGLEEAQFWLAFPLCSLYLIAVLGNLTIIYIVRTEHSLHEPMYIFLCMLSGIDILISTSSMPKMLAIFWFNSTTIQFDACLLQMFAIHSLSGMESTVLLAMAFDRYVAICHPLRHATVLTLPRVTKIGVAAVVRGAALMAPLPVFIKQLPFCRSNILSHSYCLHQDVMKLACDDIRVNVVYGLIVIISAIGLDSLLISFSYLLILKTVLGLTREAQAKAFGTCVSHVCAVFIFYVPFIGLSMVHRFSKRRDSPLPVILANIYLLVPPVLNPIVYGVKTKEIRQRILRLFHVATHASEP
Summary of the method: as §1

OR51E2 (Homo sapiens) = biological target: T8, OR51E2 (Homo sapiens) (UniProt Q9H255)
T8 sequence (whole entry): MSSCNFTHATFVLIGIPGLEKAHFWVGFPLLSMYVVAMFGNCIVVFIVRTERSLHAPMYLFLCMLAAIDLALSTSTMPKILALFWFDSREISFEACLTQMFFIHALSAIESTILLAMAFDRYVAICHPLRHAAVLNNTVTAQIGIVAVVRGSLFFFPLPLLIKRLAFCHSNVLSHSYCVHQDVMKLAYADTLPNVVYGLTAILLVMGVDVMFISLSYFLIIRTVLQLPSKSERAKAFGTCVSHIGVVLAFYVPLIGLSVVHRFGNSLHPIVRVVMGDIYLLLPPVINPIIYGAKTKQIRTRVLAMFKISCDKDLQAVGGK
Summary of the method: as §1

OR51G1 (Homo sapiens) = biological target: T9, OR51G1 (Homo sapiens) (UniProt Q8NGK1)
T9 sequence (whole entry): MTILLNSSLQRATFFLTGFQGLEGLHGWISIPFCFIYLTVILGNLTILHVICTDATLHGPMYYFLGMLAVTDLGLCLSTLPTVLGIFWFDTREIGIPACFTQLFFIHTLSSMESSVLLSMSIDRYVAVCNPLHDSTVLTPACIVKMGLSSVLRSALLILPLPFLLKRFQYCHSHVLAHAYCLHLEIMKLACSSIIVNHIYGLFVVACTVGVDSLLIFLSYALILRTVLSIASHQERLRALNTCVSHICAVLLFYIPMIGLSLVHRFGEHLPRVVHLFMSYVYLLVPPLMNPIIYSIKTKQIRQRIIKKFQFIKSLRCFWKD
Summary of the method: as §1

OR51H1 (Homo sapiens) = biological target: T10, OR51H1 (Homo sapiens) (UniProt Q8NH63)
T10 sequence (whole entry): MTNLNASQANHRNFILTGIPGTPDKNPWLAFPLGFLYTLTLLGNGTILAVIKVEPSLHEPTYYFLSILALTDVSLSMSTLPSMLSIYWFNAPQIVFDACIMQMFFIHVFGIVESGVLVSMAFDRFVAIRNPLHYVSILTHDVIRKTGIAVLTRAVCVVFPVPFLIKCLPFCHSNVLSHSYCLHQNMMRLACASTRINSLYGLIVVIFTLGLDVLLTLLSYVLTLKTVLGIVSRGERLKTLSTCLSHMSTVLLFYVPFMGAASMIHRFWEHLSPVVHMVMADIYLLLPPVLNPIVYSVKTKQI
Summary of the method: as §1

Measured: odorant receptor agonist call

c1ccc(Oc2ccccc2)cc1
inactive: all assays above

C=CCSCC=C
active: OR51E1 (Homo sapiens)
inactive: all other assays above

CC(=O)OCC=C(C)CCC=C(C)C
active: OR51E1 (Homo sapiens)
inactive: all other assays above
